No constants are given. Whether binding was seen depends on the method and setting. Binding calls can cover weak binding; strength is not graded here. Sequences can lack the tags named with a protein.
Legend:
Assay in all cases: ELISA; plates coated overnight at 4°C with 10 µg/mL PilA, PilB, PilC or HvgA-S10; blocked with 2% BSA in PBS; rGAPDH added at 0, 6.25, 12.5, 25, 50 or 100 µg/mL for 2 h at room temperature; detected with rabbit anti-rGAPDH IgG and HRP anti-rabbit, OD450; both purified
[1] = biological target: PilB-6×His (major pilin PilB, Gbs1477) (Group B Streptococcus (Streptococcus agalactiae) strain NEM316)
[2] = biological target: PilC-6×His (pilus accessory protein PilC, Gbs1474) (Group B Streptococcus (Streptococcus agalactiae) strain NEM316)
[3] = biological target: PilA-6×His (pilus associated adhesin PilA, Gbs1478) (Group B Streptococcus (Streptococcus agalactiae) strain NEM316)
[4] = biological target: His-HvgA S10 (S10 domain of HvgA protein)

Measured: binding

B1: recombinant histidyl-tagged GAPDH (glyceraldehyde 3-phosphate dehydrogenase) of Group B Streptococcus (enzyme, UniProt Q8E3E8 1-336)
chain: MVVKVGINGFGRIGRLAFRRIQNVEGVEVTRINDLTDPNMLAHLLKYDTTQGRFDGTVEVKEGGFEVNGQFVKVSAEREPANIDWATDGVEIVLEATGFFASKEKAEQHIHENGAKKVVITAPGGNDVKTVVFNTNHDILDGTETVISGASCTTNCLAPMAKALQDNFGVKQGLMTTIHAYTGDQMILDGPHRGGDLRRARAGAANIVPNSTGAAKAIGLVIPELNGKLDGAAQRVPVPTGSVTELVATLEKDVTVEEVNAAMKAAANDSYGYTEDPIVSSDIVGISYGSLFDATQTKVQTVDGNQLVKVVSWYDNEMSYTSQLVRTLEYFAKIAK
binds: [1] | [2] | [3] | [4]
